The assay deals with T1, GST-Bre1 (yeast (Saccharomyces cerevisiae)) (UniProt Q07457).
T1 sequence: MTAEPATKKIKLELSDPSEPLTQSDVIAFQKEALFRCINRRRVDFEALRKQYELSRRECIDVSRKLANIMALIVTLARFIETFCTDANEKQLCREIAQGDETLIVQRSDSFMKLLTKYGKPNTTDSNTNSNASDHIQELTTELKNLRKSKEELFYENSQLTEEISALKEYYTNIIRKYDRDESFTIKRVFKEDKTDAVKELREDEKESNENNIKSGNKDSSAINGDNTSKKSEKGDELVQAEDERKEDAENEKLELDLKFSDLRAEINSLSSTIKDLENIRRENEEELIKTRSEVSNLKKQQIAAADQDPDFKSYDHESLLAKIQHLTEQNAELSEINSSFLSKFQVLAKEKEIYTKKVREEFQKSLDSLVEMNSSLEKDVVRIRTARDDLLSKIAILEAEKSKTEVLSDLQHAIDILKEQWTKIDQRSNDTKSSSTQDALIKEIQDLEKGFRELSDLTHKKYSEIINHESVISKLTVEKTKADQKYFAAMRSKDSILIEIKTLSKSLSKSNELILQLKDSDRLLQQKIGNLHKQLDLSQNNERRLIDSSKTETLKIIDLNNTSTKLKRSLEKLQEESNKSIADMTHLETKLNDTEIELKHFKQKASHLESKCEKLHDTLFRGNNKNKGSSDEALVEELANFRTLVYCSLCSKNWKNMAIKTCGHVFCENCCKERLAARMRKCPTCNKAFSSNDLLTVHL
Description: affinity purification with mass spectrometry; purified recombinant GST-Bre1 on glutathione agarose beads incubated with lysate of yeast cells treated with 0.1% MMS, 4 °C overnight; washes with lysis buffer containing 200 mM NaCl; purified GST as control; only the target purified.

By UniProt entry, the sequences of proteins in these tests, tags left out.
UniProt P25454: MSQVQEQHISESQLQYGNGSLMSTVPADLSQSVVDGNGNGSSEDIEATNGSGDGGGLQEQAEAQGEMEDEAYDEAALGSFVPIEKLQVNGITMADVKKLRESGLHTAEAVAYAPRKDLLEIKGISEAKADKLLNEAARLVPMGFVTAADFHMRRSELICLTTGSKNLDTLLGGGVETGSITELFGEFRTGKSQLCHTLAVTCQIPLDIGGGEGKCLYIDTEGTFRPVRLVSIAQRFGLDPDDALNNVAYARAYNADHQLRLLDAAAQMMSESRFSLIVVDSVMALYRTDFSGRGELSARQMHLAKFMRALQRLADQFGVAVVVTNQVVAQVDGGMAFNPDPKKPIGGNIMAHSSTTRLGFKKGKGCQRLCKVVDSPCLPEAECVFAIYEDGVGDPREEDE

Binding data for one substance are collected here from PMC10213050.

No constants are given. Whether binding was seen depends on the method and setting. Binding seen in cells or lysates may run through a third protein. These calls come from enrichment with a bait or labelling near it, and not all partners need be listed. Where a sequence is shown, tags or fusion partners need not be part of it.

On to “Rad51 (in lysate of MMS-treated yeast cells) (from UniProt P25454 1-400)”, for which the binding result is given as “binds”.
